Experimental data as given in publication PMC3282068.
No constants are given. Whether binding was seen depends on the method and setting. For some assays here: In cells and extracts the contact can be indirect. Some binding calls cover weakened binding; strength is not graded here. One block for each binder: values may come before it.

Protein sequences, listed by entry. Tags and fused reporters are not part of them.
UniProt P07355: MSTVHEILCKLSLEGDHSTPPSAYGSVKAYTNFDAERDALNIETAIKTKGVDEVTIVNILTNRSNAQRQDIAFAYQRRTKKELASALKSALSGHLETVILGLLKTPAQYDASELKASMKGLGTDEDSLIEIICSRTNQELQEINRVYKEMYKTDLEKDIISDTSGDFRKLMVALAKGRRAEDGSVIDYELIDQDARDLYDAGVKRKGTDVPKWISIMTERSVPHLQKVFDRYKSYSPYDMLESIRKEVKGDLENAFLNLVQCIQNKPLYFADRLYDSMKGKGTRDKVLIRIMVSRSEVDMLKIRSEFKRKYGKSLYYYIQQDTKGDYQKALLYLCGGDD

How the values were obtained:
[1] = target: human recombinant Annexin A2, oxidized by H2O2 (human) (UniProt P07355); experiment: SDS-PAGE under non-reducing conditions with western blotting; 2.5 μM ANXA2 treated with 100 μM H2O2 with 20 μM Trx, 15 minutes at 37°C; labeled with 20 μM BIAM; complex seen as a 48 KDa band; both purified
[2] = target: Annexin A2, endogenous in A549 cells (human (endogenous in A549)) (UniProt P07355); experiment: co-IP; A549 cells non-treated or treated with 1 mM H2O2 for 1 hour; Triton X-100 lysis buffer (50 mM Tris pH 7.4, 0.15% Triton X-100, 150 mM NaCl, 1.5 mM EGTA); immunoprecipitation with anti-Trx, anti-ANXA2, anti-JunD (control) or IgG, protein G-Sepharose; western blotting

binding [1]: binds
B1: thioredoxin (protein, UniProt P10599 1-105)
chain: MVKQIESKTAFQEALDAAGDKLVVVDFSATWCGPCKMIKPFFHSLSEKYSNVIFLEVDVDDCQDVASECEVKCMPTFQFFKKGQKVGEFSGANKEKLEATINELV

binding [2]: binds
B2: thioredoxin, endogenous in A549 cells (protein, UniProt P10599 1-105)
chain: B1 chain
